The values below come from patent US7414113B2, “Antibody that specifically binds to Candida kefyr Cytosine deaminase” (Onyx Pharmaceuticals, Inc., priority 2002, dated 2008).

Where “and” joins values, the source holds several entries; their conditions need not be identical. Equal entries are not always repeated.

This series deals with HEK 293 cells. The experiment in a line: Expression of CD constructs, anti-FLAG Western blot of cell lysate. The format is cell-based, Human. To be noted: FIG. 8. From the text:
Human embryonic kidney cells (HEK 293 cells) were transiently transfected with one of these constructs: CK-CD-FLAG, CK-CD, E-CD-FLAG, E-CD or vector alone (pCMV-tag4C). […] Cells co-transfected with a construct and a GFP containing plasmid indicated approximately equivalent levels of transfection.
The experimental details are as follows: 293 cells in 10 cm dishes were transfected with 10 or 15 ÿg of CD constructs using FuGene® 6 (ROCHE™) at a DNA/FuGene® ratio of 1:3. No carrier DNA was used. Cell lysates were collected in 1 ml of lysis buffer (20 mM Tris-Cl, pH8, 150 mM NaCl, 1% Triton X-100) after 48 hours by three freeze/thaw cycles using dry ice for 10 minutes and room temperature for 10 minutes.
30 μl of cell lysate was separated by 12% SDS-PAGE, transferred to membrane and then Western blotted with anti-flag monoclonal antibody at a dilution of 1:5000 (SIGMA™). The membranes were incubated with HRP conjugated goat-anti-mouse secondary antibody (1:10000, AMERSHAM™) and the signal visualized with an ECL system (AMERSHAM™). […] Similar results were obtained (not shown) when the cells were transfected with 2 μg of each DNA construct. Experiments are planned to test a humanized C. kefyr gene and it is expected that the humanized gene will improve the expression levels. […]

B1: E-CD-FLAG: E. coli cytosine deaminase with FLAG tag (protein, UniProt P25524 2-427, looked up)
Cytosine deaminase: SNNALQTIINARLPGEEGLWQIHLQDGKISAIDAQSGVMPITENSLDAEQGLVIPPFVEPHIHLDTTQTAGQPNWNQSGTLFEGIERWAERKALLTHDDVKQRAWQTLKWQIANGIQHVRTHVDVSDATLTALKAMLEVKQEVAPWIDLQIVAFPQEGILSYPNGEALLEEALRLGADVVGAIPHFEFTREYGVESLHKTFALAQKYDRLIDVHCDEIDDEQSRFVETVAALAHHEGMGARVTASHTTAMHSYNGAYTSRLFRLLKMSGINFVANPLVNIHLQGRFDTYPKRRGITRVKEMLESGINVCFGHDDVFDPWYPLGTANMLQVLHMGLHVCQLMGYGQINDGLNLITHHSARTLNLQDYGIAAGNSANLIILPAENGFDALRRQVPVRYSVRGGKVIASTQPAQTTVYLEQPEAIDYKR
modifications: FLAG tag
On to B1, for which, under “Western blot with anti-FLAG”, the “amount of E-CD-FLAG lysate equivalent to 30 μl of CK-CD-FLAG lysate” value was ~3 µL and ~4 µL. In addition, the “fold better expression of E-CD-FLAG than CK-CD-FLAG” value (second Western blot) is “about 7.5 fold”.
